Reference: PubChem BioAssay AID192 (DTP/NCI, 2004)
The list shows only some results of the screen, not a fair sample: it is rich in T/C values a quarter to a half above the control, in often repeated tests (any T/C) and in doses without a T/C. Other doses and runs of a compound stand elsewhere. T/C: endpoint of the treated group in % of that of the vehicle group. Some entries give survivors of the animals treated and no T/C: the source holds a T/C of zero for them, seemingly a mark for toxic or unscored doses. Some doses without a T/C left all or most animals alive at the check, yet need not have been tolerated: the source hardly ever lists a survival T/C far under the control, and the zero likely stands for such cases as well. Counts of survivors are from the toxicity check (mostly the fifth day) where no day follows; animals may have died later. Schedules are NCI's codes, taken here to give the interval after Q, in days (D) or hours (H), and the number of doses after X. Some entries hold several experiments; the results are listed from low to high. For survival time, this PubChem deposit counts one and a half times the control or more as active, and values a quarter to a half above the control carry no call in these data; other NCI protocols may use other cut-offs. Marks such as (2×) stand for listed records that agree. Some T/C values carry the count of animals alive at the toxicity check (mostly the fifth day); where none is given, no animal had died by that day.

Test system: BDF1 mice, B16 melanoma ip, median survival T/C
Test: NCI In Vivo Anticancer Drug Screen. Data for tumor model B16 Melanoma (intraperitoneal) in B6D2F1 (BDF1) mice
Details: T/C endpoint: median survival time, higher T/C = longer survival
How it was run: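 Survival or tumor size is measured after treatment of tumor-bearing mice and normalised to the vehicle-treated control group.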

[1] = dose: 1.25 mg/kg/injection, schedule: Q01DX009 (ip), vehicle: saline with Tween-80
[2] = dose: 6.0 mg/kg/injection, schedule: Q01DX009 (ip), vehicle: Klucel (hydroxypropylcellulose) (HPC)
[3] = dose: 400.0 mg/kg/injection, schedule: Q01DX009 (ip), vehicle: Klucel (hydroxypropylcellulose) (HPC)
[4] = dose: 25.0 mg/kg/injection, schedule: Q01DX009 (ip), vehicle: saline with Tween-80
[5] = dose: 200.0 mg/kg/injection, schedule: Q01DX009 (ip), vehicle: saline with Tween-80
[6] = dose: 50.0 mg/kg/injection, schedule: Q01DX009 (ip), vehicle: saline with Tween-80
[7] = dose: 100.0 mg/kg/injection, schedule: Q01DX009 (ip), vehicle: Klucel (hydroxypropylcellulose) (HPC)
[8] = dose: 200.0 mg/kg/injection, schedule: Q01DX009 (ip), vehicle: Klucel (hydroxypropylcellulose) (HPC)
[9] = dose: 12.5 mg/kg/injection, schedule: Q01DX009 (ip), vehicle: saline with Tween-80

For `CC1OC(=O)C(C(C)C)NC(=O)C(C(C)C)OC(=O)C(C(C)C)NC(=O)C(C)OC(=O)C(C(C)C)NC(=O)C(C(C)C)OC(=O)C(C(C)C)NC(=O)C(C)OC(=O)C(C(C)C)NC(=O)C(C(C)C)OC(=O)C(C(C)C)NC1=O` (configuration not stated), the T/C (dose: 0.2 mg/kg/injection, schedule: Q01DX009 (ip), vehicle: DMSO) was 142 % of control, the T/C (dose: 0.31 mg/kg/injection, schedule: Q01DX009 (ip), vehicle: saline with Tween-80) was 144 % of control and the T/C (dose: 0.4 mg/kg/injection, schedule: Q01DX009 (ip), vehicle: DMSO) was 136 % of control. For the same compound, the T/C (dose: 0.62 mg/kg/injection, schedule: Q01DX009 (ip), vehicle: saline with Tween-80) was 128 % of control, the T/C (dose: 0.75 mg/kg/injection, schedule: Q01DX009 (ip), vehicle: saline with Tween-80) was 140 % of control and the survivor count (dose: 0.8 mg/kg/injection, schedule: Q01DX009 (ip), vehicle: DMSO) was 0 of 10 and 8 of 10. The T/C [1] was 126 % of control [9 of 10 alive], the T/C (dose: 1.5 mg/kg/injection, schedule: Q01DX009 (ip), vehicle: saline with Tween-80) was 133 % of control and the survivor count (dose: 1.6 mg/kg/injection, schedule: Q01DX009 (ip), vehicle: DMSO) was 0 of 10 and 2 of 10. The T/C (dose: 2.5 mg/kg/injection, schedule: Q01DX009 (ip), vehicle: saline with Tween-80) was 141 % of control, the T/C (dose: 3.0 mg/kg/injection, schedule: Q01DX009 (ip), vehicle: Klucel (hydroxypropylcellulose) (HPC)) was 125 % of control [8 of 10 alive] and the T/C (dose: 3.0 mg/kg/injection, schedule: Q01DX009 (ip), vehicle: saline with Tween-80) was 140 % of control. The T/C [2] was 135 % of control, the survivor count (dose: 40.0 mg/kg/injection, schedule: Q01DX009 (ip), vehicle: saline with Tween-80) was 8 of 10 and the survivor count (dose: 80.0 mg/kg/injection, schedule: Q01DX009 (oral), vehicle: saline with Tween-80) was 10 of 10.
In the case of `COC(=O)C(CSCc1ccccc1)NC(=O)CCNC(=O)OCc1ccccc1` (configuration not stated), the survivor count (dose: 400.0 mg/kg/injection, schedule: Q01DX009 (ip), vehicle: other) is reported as 9 of 10.
For `CS(=O)(=O)Nc1ccc(C(=O)O)cc1`, the survivor count [3] was 10 of 10.
With `Cc1ccccc1N(CC1CO1)CC1CO1` (configuration not stated) the T/C [4] was 137 % of control, the survivor count [5] was 5 of 10 and the survivor count (dose: 400.0 mg/kg/injection, schedule: Q01DX009 (ip), vehicle: saline with Tween-80) was 0 of 10.
`COC(=O)C[C@](O)(CCC(C)(C)O)C(=O)O[C@@H]1C(OC)=C[C@]23CCCN2CCc2cc4c(cc2[C@H]13)OCO4` was tested, and the T/C (dose: 0.5 mg/kg/injection, schedule: Q01DX009 (ip), vehicle: saline) was 142 % of control, the survivor count (dose: 4.0 mg/kg/injection, schedule: Q01DX009 (ip), vehicle: saline) was 3 of 6 and the T/C (dose: 250.0 micrograms/kg/injection, schedule: Q01DX009 (ip), vehicle: saline) was 134 % of control. The T/C (dose: 500.0 micrograms/kg/injection, schedule: Q01DX009 (ip), vehicle: saline) was 139 % of control.
For `CCOc1ccc2c(ccc(/C=C\c3cc(C)c4cccnc4c3O)[n+]2C)c1`, the survivor count [4] was 3 of 10 and the survivor count [6] was 4 of 10.
For `C[C@@H]1O[C@@H](O[C@H]2CC[C@]3(C=O)[C@H]4CC[C@]5(C)[C@@H](c6ccc(=O)oc6)CC[C@]5(O)[C@@H]4CC[C@]3(O)C2)[C@H](O)[C@H](O)[C@H]1O[C@@H]1O[C@H](CO)[C@@H](O)[C@H](O)[C@H]1O`, the survivor count (dose: 5.0 mg/kg/injection, schedule: Q01DX009 (ip), vehicle: saline) was 5 of 6.
For `O=C(Nc1ccccc1F)Nc1ccccc1Cl`, the survivor count [7] was 10 of 10, the survivor count [8] was 10 of 10 and the survivor count [3] was 9 of 10 and 10 of 10.
For `O=C(O)C(/C=C/c1ccccc1)c1ccccc1` (configuration not stated), the survivor count [5] was 8 of 10.
For `CCCCC#CCOCC(O)CCl` (configuration not stated), the T/C [9] was 127 % of control, the survivor count (dose: 25.0 mg/kg/injection, schedule: Q01DX009 (ip), vehicle: Klucel (hydroxypropylcellulose) (HPC)) was 10 of 10 and the survivor count (dose: 50.0 mg/kg/injection, schedule: Q01DX009 (ip), vehicle: Klucel (hydroxypropylcellulose) (HPC)) was 10 of 10. The survivor count [7] was 10 of 10 and the survivor count [8] was 10 of 10.
With `CC(=O)OCC1OC(OC(C)=O)C(NC(=O)N(CCCl)N=O)C(OC(C)=O)C1OC(C)=O` (configuration not stated) the T/C (dose: 1.0 mg/kg/injection, schedule: Q01DX009 (ip), vehicle: Klucel (hydroxypropylcellulose) (HPC)) was 148 % of control, the T/C (dose: 4.0 mg/kg/injection, schedule: Q01DX009 (ip), vehicle: Klucel (hydroxypropylcellulose) (HPC)) was 143 % of control and the T/C [2] was 134 % of control. For the same compound, the survivor count (dose: 8.0 mg/kg/injection, schedule: Q01DX009 (ip), vehicle: Klucel (hydroxypropylcellulose) (HPC)) was 10 of 10, the survivor count (dose: 12.0 mg/kg/injection, schedule: Q01DX009 (ip), vehicle: Klucel (hydroxypropylcellulose) (HPC)) was 10 of 10 and the survivor count (dose: 16.0 mg/kg/injection, schedule: Q01DX009 (ip), vehicle: Klucel (hydroxypropylcellulose) (HPC)) was 10 of 10. For the same compound, the survivor count (dose: 24.0 mg/kg/injection, schedule: Q01DX009 (ip), vehicle: Klucel (hydroxypropylcellulose) (HPC)) was 10 of 10.
In the case of `Cc1c(N)nc([C@H](CC(N)=O)NC[C@H](N)C(N)=O)nc1C(=O)N[C@H](C(=O)N[C@H](C)[C@@H](O)CC(=O)N[C@H](C(=O)NC(O[C@@H]1O[C@@H](C)[C@@H](N)[C@@H](O)[C@H]1O)C(O)c1nc(-c2nc(C(=O)NCCCCN)cs2)cs1)[C@@H](C)O)[C@@H](O[C@@H]1O[C@@H](CO)[C@@H](O)[C@H](O)[C@@H]1O[C@H]1O[C@H](CO)[C@@H](O)[C@H](OC(N)=O)[C@@H]1O)c1c[nH]cn1` (some centres not stated), the T/C (dose: 0.2 mg/kg/injection, schedule: Q01DX009 (ip), vehicle: saline) is reported as 135 % of control and the T/C (dose: 0.4 mg/kg/injection, schedule: Q01DX009 (ip), vehicle: saline) is reported as 147 % of control.
For `CNC1C(OC2C(OC3C(O)C(O)C(N=C(N)N)C(O)C3N=C(N)N)OC(C)C2(O)C=O)OC(CO)C(O)C1O` (configuration not stated), the survivor count (dose: 400.0 mg/kg/injection, schedule: Q01DX009 (ip), vehicle: water) was 6 of 10.
`O=C(CCBr)N1CCN(C(=O)CCBr)CC1` was tested, and the T/C (dose: 40.0 mg/kg/injection, schedule: Q01DX009 (ip), vehicle: saline) was 126 % of control (2×), the T/C (dose: 80.0 mg/kg/injection, schedule: Q01DX009 (ip), vehicle: saline with Tween-80) was 136 % of control and the survivor count (dose: 80.0 mg/kg/injection, schedule: Q01DX009 (ip), vehicle: saline) was 10 of 10.
For `O=C1C(N2CC2)=C(N2CCCC(O)C2)C(=O)C(N2CC2)=C1N1CCCC(O)C1` (configuration not stated), the T/C (dose: 1.0 mg/kg/injection, schedule: Q01DX009 (ip), vehicle: saline) was 140 % of control and the T/C (dose: 2.0 mg/kg/injection, schedule: Q01DX009 (ip), vehicle: saline) was 130 % of control.
For `COC(=O)c1cc2cc3c(c(O)c2c(=O)o1)OC1(Cc2c(O)c4c(c(O)c2O1)C(=O)C(OC)CC4=O)CC3O` (configuration not stated), the survivor count [9] was 10 of 10 and the survivor count [6] was 10 of 10.
In the case of `COc1ccc2c(Nc3ccc(NS(C)(=O)=O)cc3)c3ccccc3nc2c1`, the T/C [1] is reported as 126 % of control, the T/C (dose: 12.5 mg/kg/injection, schedule: Q01DX001 (ip), vehicle: saline sonified) is reported as 138 % of control and the survivor count (dose: 15.0 mg/kg/injection, schedule: Q01DX009 (ip), vehicle: saline with Tween-80) is reported as 10 of 10. For the same compound, the T/C (dose: 25.0 mg/kg/injection, schedule: Q01DX001 (ip), vehicle: saline sonified) was 130 % of control, the survivor count (dose: 25.0 mg/kg/injection, schedule: Q01DX009 (ip), vehicle: saline) was 6 of 6 and the survivor count (dose: 50.0 mg/kg/injection, schedule: Q01DX009 (ip), vehicle: saline) was 6 of 6. For the same compound, the survivor count (dose: 100.0 mg/kg/injection, schedule: Q01DX009 (ip), vehicle: saline) was 5 of 6.
For `ClC1=C(Cl)C(Cl)=C(Cl)C1=Cc1ccccc1`, the survivor count [6] was 0 of 10.
For `CC(O)C(=O)[O][Hg][c]1ccccc1` (configuration not stated), the survivor count (dose: 10.0 mg/kg/injection, schedule: Q01DX009 (ip), vehicle: saline with Tween-80) was 9 of 10.
